Article PMC10870365, “Dissection of protein and RNA regions required for SPEN binding to XIST A-repeat RNA”
No constants are given. Whether binding was seen depends on the method and setting.

How the values were obtained:
SPEN_(RRM 1–4) (human) = assay: SEC; gel filtration as last purification step, HiLoad 16/600 Superdex 200 pg, 50 mM HEPES (pH 7.5), 300 mM NaCl, 5 mM β-mercaptoethanol, 0.1% Triton-X; both purified
SPEN_(RRM 2–4) (human) = assay: as above

binding (SPEN_(RRM 1–4) (human)) | binding (SPEN_(RRM 2–4) (human)) | Binder
no binding | – | SPEN_(RRM 1–4) (domain or fragment) MVRETRHLWVGNLPENVREEKIIEHFKRYGRVESVKILPKRGSEGGVAAFVDFVDIKSAQKAHNSVNKMGDRDLRTDYNEPGTIPSAARGLDDTVSIASRSREVSGFRGGGGGPAYGPPPSLHAREGRYERRLDGSDSSSSSSDDSPARSVQSAAVPAPTSQLLSSLEKDEPRKSFGIKVQNLPVRSTDTSLKDGLFHEFKKFGKVTSVQIHGTSEERYGLVFFRQQEDQEKALTASKGKLFFGMQIEVTAWIGPETESENEFRPLDERIDEFHPKATRTLFIGNLEKTTTYHDLRNIFQRFGEIVDIDIKKVNGVPQYAFLQYCDIASVCKAIKKMDGEYLGNNRLKLGFGKSMPTNCVWLDGLSSNVSDQYLTRHFCRYGPVVKVVFDRLKGMALVLYNEIEYAQAAVKETKGRKIGGNKIKVDFANRESQLAFYHCMEKSGQDIRDFYEMLAERREER
– | no binding | SPEN_(RRM 2–4) (domain or fragment) FGIKVQNLPVRSTDTSLKDGLFHEFKKFGKVTSVQIHGTSEERYGLVFFRQQEDQEKALTASKGKLFFGMQIEVTAWIGPETESENEFRPLDERIDEFHPKATRTLFIGNLEKTTTYHDLRNIFQRFGEIVDIDIKKVNGVPQYAFLQYCDIASVCKAIKKMDGEYLGNNRLKLGFGKSMPTNCVWLDGLSSNVSDQYLTRHFCRYGPVVKVVFDRLKGMALVLYNEIEYAQAAVKETKGRKIGGNKIKVDFANRESQLAFYHCMEKSGQDIRDFYEMLAERREER
